# Assay results: article PMC12040169 (PLOS Biology, 2025)
# Some of the results follow.
# Tested on: T1, CTL2-GFP (C. trachomatis L2/434/Bu, GFP-expressing)
# T1 construct: L2/434/Bu, GFP-expressing
# Design: species or system HeLa; Intracellular C. trachomatis growth in HeLa cells, bulk GFP fluorescence relative to DMSO
# Details: bulk GFP, single well; 28.5 h, 10 µM; inhibitor
row,Structure (SMILES),% of control remaining
1,O=C(c1ccc(N2CC=CCC2)nc1)N1CCC(N2CCOCC2)CC1 [CBK307334],144.943%
2,CCCC1CCCN(Cc2nnnn2-c2ccc(S(C)(=O)=O)cc2)C1 (centres unmarked) [CBK304142],97.3158%
3,O=C(c1cc(-c2ccc(Cl)cc2)[nH]n1)N1CCNCC1 [CBK116548],64.7568%
4,CCn1c(CN2CCCC2c2nc(N(C)C)ncc2-c2ccccc2)nc2ccccc21 (centres unmarked) [CBK286070],87.8153%
5,COc1cccc2sc(Nc3nc4c(s3)C(=O)CC(C)(C)C4)nc12 [CBK287467],92.1804%
6,CC(NC(=O)c1ncoc1-c1ccccc1)c1ccccn1 (centres unmarked) [CBK283889],113.939%
7,Cc1cc(Cl)c(S(=O)(=O)N2CCCC2)cc1OCC(=O)NC1CCCCC1 [CBK266781],120.8%
8,CN(C)S(=O)(=O)N(C)c1ccc(C(=O)O)cc1 [CBK287244],123.427%
9,Cc1ccc(CN2CCC3(CCCNC3=O)CC2)cc1 [CBK284822],121.236%
10,NC(=O)c1ccc(NC(=O)N2CCN(CCc3ccccc3)CC2)cc1 [CBK158924],127.861%
11,COc1ccc2c(c1)CC(=O)NC21CCN(C(=O)NC(C)C)CC1 [CBK047261],99.1759%
12,COc1ccc(-c2cc(C(=O)Nc3ccc(CCO)cc3)cnc2-c2cccc(C)c2)cn1 [CBK037461],180.108%
13,COc1ccccc1C(NC(=O)C1CCN(CCc2c[nH]c3ccccc23)CC1)c1ccccn1 (centres unmarked) [CBK147923],152.59%
14,O=C(NCC1COc2ccccc2O1)c1ccc2[nH]ccc2c1 (centres unmarked) [CBK149054],120.773%
15,CCCNc1nccnc1-c1ccccc1F [CBK037231],104.197%
16,CC(C)(C)c1cc(NC(=O)CSc2ccc(S(=O)(=O)N3CCCC3)cn2)n(-c2ccccc2)n1 [CBK297099],144.964%
17,CC1CCCCN1Cc1nc2c(c(=O)n(C)c(=O)n2C)n1Cc1ccccc1 (centres unmarked) [CBK269203],95.1513%
18,Cc1ccc(C(=O)N2CCN(S(=O)(=O)c3sc(C(=O)O)c(C)c3C(=O)O)CC2)cc1 [CBK297120],191.41%
19,Cc1oc(-c2ccccc2)cc1C(=O)Nc1ccc(N2CCNCC2)nc1 [CBK034127T],89.8617%
20,Cc1ccccc1Cc1cccc(C2CCN(CC(=O)Nc3nccs3)CC2)n1 [CBK286089],84.3725%
21,Cc1ccc(Cn2nc(C)c(C(=O)OCc3cc(=O)n4ccccc4n3)c2Cl)cc1 [CBK297550],86.6961%
22,CCOc1ccc(S(=O)(=O)N2CCCN(CCCC#N)CC2)c2cccnc12 [CBK062935],113.284%
23,Cc1cc(C)n(-c2cc(N3CCN(S(=O)(=O)Cc4ccccc4)CC3)ccc2[N+](=O)[O-])n1 [CBK264407],102.843%
24,CN1CCN(C(=O)c2ccsc2NS(=O)(=O)Cc2ccccc2)CC1 [CBK042266],105.764%
25,O=C(CSc1n[nH]c(=O)[nH]c1=O)N/N=C/c1cccs1 [CBK263508],107.94%

row,Structure (SMILES),% of control remaining
1,CN(Cc1ccsc1)C(=O)c1cccc(S(=O)(=O)NCC2CCCO2)c1 (centres unmarked) [CBK304232],79.4%
2,O=C(CN1CCN(S(=O)(=O)N2CCCCC2)CC1)Nc1ccc(Br)cc1 [CBK269515],112.178%
3,COc1ccc(C(=O)N[C@H]2C[C@H]3C(=O)NC[C@@H](CCC(=O)N4CCN(C)CC4)N3C2)cc1 [CBK289016],125.394%
4,CCCC(=O)N1CCC(c2nnc(-c3ccsc3)o2)CC1 [CBK283377],110.431%
5,CCCc1cc(C(=O)NC(C)(C)CN2CCCC(C)C2)[nH]n1 (centres unmarked) [CBK282467],147.254%
6,O=C(CN1CCC(NC(=O)c2ccccc2)CC1)Nc1ccccc1 [CBK074716],121.734%
7,COc1cc(/C=C(/C#N)c2ccc(C(=O)O)cc2)ccc1OCc1cccc([N+](=O)[O-])c1 [CBK269057],83.7671%
8,COc1ccccc1/C=C/c1nn2c(C(C)C)nnc2s1 [CBK269501],142.201%
9,O=C1c2cccc3cccc(c23)C(=O)N1CCN1CCN(CC(O)COc2ccc(Cl)cc2Cl)CC1 (centres unmarked) [CBK264881],100%
10,Cc1nn2c(C3CCCNC3)ccnc2c1-c1ccc(F)cc1 (centres unmarked) [CBK284139],100.293%
11,O=C(CSc1nc2ccccc2[nH]1)c1ccccc1 [CBK261298],110.641%
12,Fc1ccc(C2CCCN(CCCOc3cccc(F)c3)C2)cc1 (centres unmarked) [CBK016228B],100%
13,Cc1ccc(S(=O)(=O)NCC(=O)N2CCOCC2)cc1[N+](=O)[O-] [CBK050597],123.447%
14,O=C(N/N=C\c1ccccc1O)c1nc([N+](=O)[O-])n[nH]1 [CBK261475],112.593%
15,Cn1nc(NC(=O)Cc2ccsc2)c2c(N3CCOCC3)cccc21 [CBK307023],110.254%
16,CCn1cc(CN2C3CCC2CC(O)(c2ccccc2F)C3)cn1 (centres unmarked) [CBK282662],132.555%
17,Cc1cc(-c2cn(C)nc2C2CCCCN2C(=O)C2CCC2)on1 (centres unmarked) [CBK283403],122.588%
18,CCC(=O)N1CC[C@H]2NC(=O)c3ccccc3OCC/C=C/C[C@H]2C1 [CBK291999],136.876%
19,Fc1ccc(Oc2nccnc2N2CCN(Cc3ccc(Cl)cc3)CC2)cc1 [CBK083010T],163.108%
20,COc1ccc(C(C)C)cc1-c1cncc(NC(C)CCCC(C)(C)O)n1 (centres unmarked) [CBK065521],114.259%
21,CC(=O)Nc1c(O)nc(SCC(=O)Nc2ccc(C(C)=O)cc2)[nH]c1=O [CBK268527],117.667%
22,CC(=O)NCCNC(=O)c1cc(Br)cnc1NCCOc1ccccc1 [CBK076232],85.7393%
23,S=C1NC2c3ccccc3OC3(CCCCC23)N1 (centres unmarked) [CBK288506],112.801%
24,O=C(c1cc(CO)ccn1)N(Cc1ccccn1)CC1CCCO1 (centres unmarked) [CBK306820],120.301%
25,N#CCCCN1CCC2(CC1)CN(CC(N)=O)c1ccccc12 [CBK137024],89.4647%

# Three entries out of the list, sorted by molecular weight, rising.
row,Structure (SMILES),% of control remaining
8,COc1ccccc1/C=C/c1nn2c(C(C)C)nnc2s1 [CBK269501],142.201%
18,CCC(=O)N1CC[C@H]2NC(=O)c3ccccc3OCC/C=C/C[C@H]2C1 [CBK291999],136.876%
13,Cc1ccc(S(=O)(=O)NCC(=O)N2CCOCC2)cc1[N+](=O)[O-] [CBK050597],123.447%
